Test results: publication PMC12011128
Results are given in words; binding and its absence hold for the method and conditions named. Binding seen in cells or lysates may run through a third protein. Some binding calls cover weakened binding; strength is not graded here. Sequences can lack the tags named with a protein.

Sequences of proteins named here, by UniProt entry; tags and fusion partners are left off. A change or cut given only in a name is not applied to a line headed by its entry.
UniProt Q14457: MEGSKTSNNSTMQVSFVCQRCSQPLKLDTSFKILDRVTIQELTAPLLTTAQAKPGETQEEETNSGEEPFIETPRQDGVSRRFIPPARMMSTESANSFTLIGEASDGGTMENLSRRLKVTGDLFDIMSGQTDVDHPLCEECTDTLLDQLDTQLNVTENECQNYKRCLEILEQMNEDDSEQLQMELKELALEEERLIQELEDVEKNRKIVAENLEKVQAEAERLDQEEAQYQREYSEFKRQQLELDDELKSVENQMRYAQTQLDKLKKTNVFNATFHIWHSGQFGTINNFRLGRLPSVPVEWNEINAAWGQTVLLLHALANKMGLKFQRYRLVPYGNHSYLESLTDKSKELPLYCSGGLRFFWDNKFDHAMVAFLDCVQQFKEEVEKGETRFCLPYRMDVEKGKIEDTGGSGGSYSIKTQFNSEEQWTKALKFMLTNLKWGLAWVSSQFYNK

T1: Flag-tagged MCPIP1 wild type (full-length Flag-MCPIP1) (UniProt Q5D1E8)
T1 sequence: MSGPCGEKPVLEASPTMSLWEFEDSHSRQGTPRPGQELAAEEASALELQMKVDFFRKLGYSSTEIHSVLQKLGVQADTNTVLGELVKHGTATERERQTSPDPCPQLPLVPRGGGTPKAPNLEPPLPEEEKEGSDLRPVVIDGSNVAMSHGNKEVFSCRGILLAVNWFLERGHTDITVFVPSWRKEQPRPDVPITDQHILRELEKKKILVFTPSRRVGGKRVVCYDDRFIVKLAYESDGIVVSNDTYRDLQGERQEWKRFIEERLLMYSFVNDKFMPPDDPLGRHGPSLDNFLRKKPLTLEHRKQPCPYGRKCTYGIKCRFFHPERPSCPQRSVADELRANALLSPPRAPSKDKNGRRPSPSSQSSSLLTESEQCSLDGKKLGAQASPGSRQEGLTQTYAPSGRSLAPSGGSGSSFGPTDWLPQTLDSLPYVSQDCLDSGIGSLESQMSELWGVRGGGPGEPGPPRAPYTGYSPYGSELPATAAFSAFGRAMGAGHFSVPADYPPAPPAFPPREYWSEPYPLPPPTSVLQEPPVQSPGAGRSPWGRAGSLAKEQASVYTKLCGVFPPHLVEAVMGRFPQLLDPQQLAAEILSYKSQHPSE

T2: Myc-tagged MCPIP1 (UniProt Q5D1E8)
T2 sequence: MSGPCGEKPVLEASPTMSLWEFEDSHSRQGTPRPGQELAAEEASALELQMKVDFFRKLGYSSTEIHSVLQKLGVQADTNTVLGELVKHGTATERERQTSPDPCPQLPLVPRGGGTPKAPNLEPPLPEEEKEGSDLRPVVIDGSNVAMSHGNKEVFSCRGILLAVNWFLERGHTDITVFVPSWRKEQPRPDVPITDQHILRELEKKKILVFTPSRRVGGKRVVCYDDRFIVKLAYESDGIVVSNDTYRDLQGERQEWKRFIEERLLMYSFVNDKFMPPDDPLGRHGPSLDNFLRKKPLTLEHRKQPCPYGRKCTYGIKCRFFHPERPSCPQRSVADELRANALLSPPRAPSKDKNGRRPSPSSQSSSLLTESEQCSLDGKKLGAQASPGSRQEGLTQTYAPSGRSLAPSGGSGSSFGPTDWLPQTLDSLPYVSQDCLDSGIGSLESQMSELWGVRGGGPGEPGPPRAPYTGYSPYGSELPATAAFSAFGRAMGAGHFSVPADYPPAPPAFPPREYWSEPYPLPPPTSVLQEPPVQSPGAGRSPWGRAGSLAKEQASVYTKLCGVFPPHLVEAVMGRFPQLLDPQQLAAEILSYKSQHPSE


What follows are molecules tested against T1, Flag-tagged MCPIP1 wild type (full-length Flag-MCPIP1) (assay: co-IP; semi-endogenous IP: HPF cells transiently transfected with Flag-MCPIP1, with or without 15 µg/mL LPS for 3 hours; IP with anti-IgG or anti-Flag, immunoblot with anti-Flag, anti-TRAF6 and anti-BECN1).

Row | Molecule | binding
1 | BECN1 (endogenous, HPF cells) (from UniProt Q14457 1-450) | binds

These molecules were tested against Myc-tagged BECN1 (UniProt Q14457) (assay: co-IP; HPF cells co-transfected with a Myc-tagged and a Flag-tagged protein (Lipofectamine 2000), collected after 38 hours; lysates immunoprecipitated with anti-Myc antibody, SDS-PAGE, immunoblot with anti-Myc and anti-Flag; for TRAF6 with BECN1 also with different concentrations of Flag-MCPIP1 co-expressed).

Row | Molecule | binding
2 | Flag-MCPIP1 1–555 (domain or fragment, UniProt Q5D1E8 1-555) MSGPCGEKPVLEASPTMSLWEFEDSHSRQGTPRPGQELAAEEASALELQMKVDFFRKLGYSSTEIHSVLQKLGVQADTNTVLGELVKHGTATERERQTSPDPCPQLPLVPRGGGTPKAPNLEPPLPEEEKEGSDLRPVVIDGSNVAMSHGNKEVFSCRGILLAVNWFLERGHTDITVFVPSWRKEQPRPDVPITDQHILRELEKKKILVFTPSRRVGGKRVVCYDDRFIVKLAYESDGIVVSNDTYRDLQGERQEWKRFIEERLLMYSFVNDKFMPPDDPLGRHGPSLDNFLRKKPLTLEHRKQPCPYGRKCTYGIKCRFFHPERPSCPQRSVADELRANALLSPPRAPSKDKNGRRPSPSSQSSSLLTESEQCSLDGKKLGAQASPGSRQEGLTQTYAPSGRSLAPSGGSGSSFGPTDWLPQTLDSLPYVSQDCLDSGIGSLESQMSELWGVRGGGPGEPGPPRAPYTGYSPYGSELPATAAFSAFGRAMGAGHFSVPADYPPAPPAFPPREYWSEPYPLPPPTSVLQEPPVQSPGAGRSPWGRAGSLAKEQAS | binds
3 | Flag-MCPIP1 81–599 (domain or fragment, UniProt Q5D1E8 81-599) VLGELVKHGTATERERQTSPDPCPQLPLVPRGGGTPKAPNLEPPLPEEEKEGSDLRPVVIDGSNVAMSHGNKEVFSCRGILLAVNWFLERGHTDITVFVPSWRKEQPRPDVPITDQHILRELEKKKILVFTPSRRVGGKRVVCYDDRFIVKLAYESDGIVVSNDTYRDLQGERQEWKRFIEERLLMYSFVNDKFMPPDDPLGRHGPSLDNFLRKKPLTLEHRKQPCPYGRKCTYGIKCRFFHPERPSCPQRSVADELRANALLSPPRAPSKDKNGRRPSPSSQSSSLLTESEQCSLDGKKLGAQASPGSRQEGLTQTYAPSGRSLAPSGGSGSSFGPTDWLPQTLDSLPYVSQDCLDSGIGSLESQMSELWGVRGGGPGEPGPPRAPYTGYSPYGSELPATAAFSAFGRAMGAGHFSVPADYPPAPPAFPPREYWSEPYPLPPPTSVLQEPPVQSPGAGRSPWGRAGSLAKEQASVYTKLCGVFPPHLVEAVMGRFPQLLDPQQLAAEILSYKSQHPSE | binds
4 | Flag-MCPIP1 1–453 (domain or fragment, UniProt Q5D1E8 1-453) MSGPCGEKPVLEASPTMSLWEFEDSHSRQGTPRPGQELAAEEASALELQMKVDFFRKLGYSSTEIHSVLQKLGVQADTNTVLGELVKHGTATERERQTSPDPCPQLPLVPRGGGTPKAPNLEPPLPEEEKEGSDLRPVVIDGSNVAMSHGNKEVFSCRGILLAVNWFLERGHTDITVFVPSWRKEQPRPDVPITDQHILRELEKKKILVFTPSRRVGGKRVVCYDDRFIVKLAYESDGIVVSNDTYRDLQGERQEWKRFIEERLLMYSFVNDKFMPPDDPLGRHGPSLDNFLRKKPLTLEHRKQPCPYGRKCTYGIKCRFFHPERPSCPQRSVADELRANALLSPPRAPSKDKNGRRPSPSSQSSSLLTESEQCSLDGKKLGAQASPGSRQEGLTQTYAPSGRSLAPSGGSGSSFGPTDWLPQTLDSLPYVSQDCLDSGIGSLESQMSELWGV | binds
5 | Flag-MCPIP1 150–599 (domain or fragment, UniProt Q5D1E8 150-599) GNKEVFSCRGILLAVNWFLERGHTDITVFVPSWRKEQPRPDVPITDQHILRELEKKKILVFTPSRRVGGKRVVCYDDRFIVKLAYESDGIVVSNDTYRDLQGERQEWKRFIEERLLMYSFVNDKFMPPDDPLGRHGPSLDNFLRKKPLTLEHRKQPCPYGRKCTYGIKCRFFHPERPSCPQRSVADELRANALLSPPRAPSKDKNGRRPSPSSQSSSLLTESEQCSLDGKKLGAQASPGSRQEGLTQTYAPSGRSLAPSGGSGSSFGPTDWLPQTLDSLPYVSQDCLDSGIGSLESQMSELWGVRGGGPGEPGPPRAPYTGYSPYGSELPATAAFSAFGRAMGAGHFSVPADYPPAPPAFPPREYWSEPYPLPPPTSVLQEPPVQSPGAGRSPWGRAGSLAKEQASVYTKLCGVFPPHLVEAVMGRFPQLLDPQQLAAEILSYKSQHPSE | binds
6 | Flag-MCPIP1 150–453 (domain or fragment, UniProt Q5D1E8 150-453) GNKEVFSCRGILLAVNWFLERGHTDITVFVPSWRKEQPRPDVPITDQHILRELEKKKILVFTPSRRVGGKRVVCYDDRFIVKLAYESDGIVVSNDTYRDLQGERQEWKRFIEERLLMYSFVNDKFMPPDDPLGRHGPSLDNFLRKKPLTLEHRKQPCPYGRKCTYGIKCRFFHPERPSCPQRSVADELRANALLSPPRAPSKDKNGRRPSPSSQSSSLLTESEQCSLDGKKLGAQASPGSRQEGLTQTYAPSGRSLAPSGGSGSSFGPTDWLPQTLDSLPYVSQDCLDSGIGSLESQMSELWGV | binds
7 | Flag-tagged MCPIP1 wild type (full-length Flag-MCPIP1) (protein, UniProt Q5D1E8 1-599) MSGPCGEKPVLEASPTMSLWEFEDSHSRQGTPRPGQELAAEEASALELQMKVDFFRKLGYSSTEIHSVLQKLGVQADTNTVLGELVKHGTATERERQTSPDPCPQLPLVPRGGGTPKAPNLEPPLPEEEKEGSDLRPVVIDGSNVAMSHGNKEVFSCRGILLAVNWFLERGHTDITVFVPSWRKEQPRPDVPITDQHILRELEKKKILVFTPSRRVGGKRVVCYDDRFIVKLAYESDGIVVSNDTYRDLQGERQEWKRFIEERLLMYSFVNDKFMPPDDPLGRHGPSLDNFLRKKPLTLEHRKQPCPYGRKCTYGIKCRFFHPERPSCPQRSVADELRANALLSPPRAPSKDKNGRRPSPSSQSSSLLTESEQCSLDGKKLGAQASPGSRQEGLTQTYAPSGRSLAPSGGSGSSFGPTDWLPQTLDSLPYVSQDCLDSGIGSLESQMSELWGVRGGGPGEPGPPRAPYTGYSPYGSELPATAAFSAFGRAMGAGHFSVPADYPPAPPAFPPREYWSEPYPLPPPTSVLQEPPVQSPGAGRSPWGRAGSLAKEQASVYTKLCGVFPPHLVEAVMGRFPQLLDPQQLAAEILSYKSQHPSE | binds

Each molecule was assayed against T2, Myc-tagged MCPIP1 in the same assay as above.

Row | Molecule | binding
8 | Flag-tagged BECN1 (full-length BECN1) (from UniProt Q14457 1-450) | binds
9 | Flag-BECN1 1–269 (from UniProt Q14457 1-269) (domain or fragment) | binds
10 | Flag-TRAF6 110–522 (domain or fragment, UniProt Q9Y4K3 110-522) EILLENQLFPDNFAKREILSLMVKCPNEGCLHKMELRHLEDHQAHCEFALMDCPQCQRPFQKFHINIHILKDCPRRQVSCDNCAASMAFEDKEIHDQNCPLANVICEYCNTILIREQMPNHYDLDCPTAPIPCTFSTFGCHEKMQRNHLARHLQENTQSHMRMLAQAVHSLSVIPDSGYISEVRNFQETIHQLEGRLVRQDHQIRELTAKMETQSMYVSELKRTIRTLEDKVAEIEAQQCNGIYIWKIGNFGMHLKCQEEEKPVVIHSPGFYTGKPGYKLCMRLHLQLPTAQRCANYISLFVHTMQGEYDSHLPWPFQGTIRLTILDQSEAPVRQNHEEIMDAKPELLAFQRPTIPRNPKGFGYVTFMHLEALRQRTFIKDDTLLVRCEVSTRFDMGSLRREGFQPRSTDAGV | binds
11 | Flag-TRAF6 260–522 (domain or fragment, UniProt Q9Y4K3 260-522) RHLQENTQSHMRMLAQAVHSLSVIPDSGYISEVRNFQETIHQLEGRLVRQDHQIRELTAKMETQSMYVSELKRTIRTLEDKVAEIEAQQCNGIYIWKIGNFGMHLKCQEEEKPVVIHSPGFYTGKPGYKLCMRLHLQLPTAQRCANYISLFVHTMQGEYDSHLPWPFQGTIRLTILDQSEAPVRQNHEEIMDAKPELLAFQRPTIPRNPKGFGYVTFMHLEALRQRTFIKDDTLLVRCEVSTRFDMGSLRREGFQPRSTDAGV | binds
12 | Flag-TRAF6 349–522 (domain or fragment, UniProt Q9Y4K3 349-522) CNGIYIWKIGNFGMHLKCQEEEKPVVIHSPGFYTGKPGYKLCMRLHLQLPTAQRCANYISLFVHTMQGEYDSHLPWPFQGTIRLTILDQSEAPVRQNHEEIMDAKPELLAFQRPTIPRNPKGFGYVTFMHLEALRQRTFIKDDTLLVRCEVSTRFDMGSLRREGFQPRSTDAGV | binds
